Assay [1] concerns the target Clec12A (human) (UniProt Q5QGZ9). Kind of assay: binding to U937 cells.
Assay [2] has the same target. Briefly: binding to U937 cells, % Binding against ul sup used /test/100ul.
Assay [3] shares this target. Kind of assay: binding to Clec12A expressing U937 cells.

Sequences of proteins named here, by UniProt entry; tags and fusion partners are left off.
UniProt Q5QGZ9: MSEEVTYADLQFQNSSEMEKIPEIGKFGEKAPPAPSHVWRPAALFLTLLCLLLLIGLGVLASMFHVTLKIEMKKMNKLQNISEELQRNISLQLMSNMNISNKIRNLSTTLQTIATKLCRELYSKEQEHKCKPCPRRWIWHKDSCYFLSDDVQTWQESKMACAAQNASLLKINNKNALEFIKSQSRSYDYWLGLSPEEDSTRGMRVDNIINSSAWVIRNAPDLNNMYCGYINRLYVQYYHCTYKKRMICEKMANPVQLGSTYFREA

Results are given in words; binding and its absence hold for the method and conditions named. Some binding calls cover weakened binding; strength is not graded here. Tags and fused reporters may be left off the sequences shown.

B1: CD19 mutant #2-G4Sx4-anti CLEC12a VHH 1G6-myc-His (VHH)
chain: PEEPLVVKVEEGDTAVLPCLKGTSDGPTQQLTWSRESPLKPFLKYSLGVPGLGVHVRPDAISVVIRNVSQQMGGFYLCQPGPPSEKAWQPGWTVNVEGSGELFRWNVSDLGGLGCGLKNRSSEGPSSPSGKLMSPKLYVWAKDRPEIWEGEPPCLPPRDSLNQSLSQDLTMAPGSTLWLSCGVPPDSVSRGPLSWTHVHPKGPKSLLSLELKDDRPAREMIVDETGLLLPRATAQDAGKWYCSRGNVTTSYHLEITARPVKAHSDLRTGGWKGGGGSGGGGSGGGGSGGGGSQVQLQQSGGGLVQAGGSLRLSCAASGSIFAINEINLMGWYRQAPGKQRELVAACASDGNTYYADSVKGRFTISRDNAEKTVYLQMNNLKPDDTAVYYCDANSRGNYYSGQGTQVTVSSTSGPGGQGAEQKLISEEDLGAHHHHHHGAS
Turning to B1, the binding result in the assay with Clec12A (human) [1] and with Clec12A (human) [2] was “binds” throughout.

B2: CD19 mutant #2-G4Sx4-anti CLEC12a VHH 2F5-myc-His (VHH)
chain: PEEPLVVKVEEGDTAVLPCLKGTSDGPTQQLTWSRESPLKPFLKYSLGVPGLGVHVRPDAISVVIRNVSQQMGGFYLCQPGPPSEKAWQPGWTVNVEGSGELFRWNVSDLGGLGCGLKNRSSEGPSSPSGKLMSPKLYVWAKDRPEIWEGEPPCLPPRDSLNQSLSQDLTMAPGSTLWLSCGVPPDSVSRGPLSWTHVHPKGPKSLLSLELKDDRPAREMIVDETGLLLPRATAQDAGKWYCSRGNVTTSYHLEITARPVKAHSDLRTGGWKGGGGSGGGGSGGGGSGGGGSQVQLQQSGGGLAQTGGSLILSCAASGSIFAINEINLMGWYRQAPGKQRELVAACASDGNTYYADSVKGRFTISRDNAEKTVYLQMNNLKPDDTAVYYCDANSRGNYYSGQGTQVTVSSTSGPGGQGAEQKLISEEDLGAHHHHHHGAS
In the case of B2, the binding entry with Clec12A (human) [1] and with Clec12A (human) [2] was “binds” in each case.

B3: CD19 ECD N term mutant #2-G4Sx4-anti CLEC12a VHH 1B12-His (VHH)
chain: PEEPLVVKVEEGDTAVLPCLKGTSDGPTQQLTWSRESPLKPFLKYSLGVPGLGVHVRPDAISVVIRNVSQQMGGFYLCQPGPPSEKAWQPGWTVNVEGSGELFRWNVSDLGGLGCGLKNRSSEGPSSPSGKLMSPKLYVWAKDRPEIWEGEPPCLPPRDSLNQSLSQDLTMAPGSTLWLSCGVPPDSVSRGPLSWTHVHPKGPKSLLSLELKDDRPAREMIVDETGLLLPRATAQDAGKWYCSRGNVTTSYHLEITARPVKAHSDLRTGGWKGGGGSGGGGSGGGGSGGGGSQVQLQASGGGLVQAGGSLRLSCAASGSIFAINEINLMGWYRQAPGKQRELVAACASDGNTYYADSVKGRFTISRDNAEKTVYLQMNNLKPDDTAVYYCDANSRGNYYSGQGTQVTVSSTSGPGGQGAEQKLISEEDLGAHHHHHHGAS
Turning to B3, in the assay with Clec12A (human) [3], the binding entry is “binds”.

B4: CD19 mutant #2-G4Sx4-anti CLEC12a VHH 2F3-myc-His (VHH)
chain: PEEPLVVKVEEGDTAVLPCLKGTSDGPTQQLTWSRESPLKPFLKYSLGVPGLGVHVRPDAISVVIRNVSQQMGGFYLCQPGPPSEKAWQPGWTVNVEGSGELFRWNVSDLGGLGCGLKNRSSEGPSSPSGKLMSPKLYVWAKDRPEIWEGEPPCLPPRDSLNQSLSQDLTMAPGSTLWLSCGVPPDSVSRGPLSWTHVHPKGPKSLLSLELKDDRPAREMIVDETGLLLPRATAQDAGKWYCSRGNVTTSYHLEITARPVKAHSDLRTGGWKGGGGSGGGGSGGGGSGGGGSQVQLQAFGGGLVQPGGSLRLSCVVSGTMFSGKDVNWLRQAPGKHVEVVATVSSDGGTDYADFVKGRFTISRDDAKNTVNLQMNSLEPEDTANYMCHFLWGRHYWGQGTQVTVSSTSGPGGQGAEQKLISEEDLGAHHHHHHGAS
As to B4, the binding entry with Clec12A (human) [1] and in the assay with Clec12A (human) [2] was “binds” in each case.

B5: CD19 mutant #2-G4Sx4-anti CLEC12a VHH 2H3-myc-His (VHH)
chain: PEEPLVVKVEEGDTAVLPCLKGTSDGPTQQLTWSRESPLKPFLKYSLGVPGLGVHVRPDAISVVIRNVSQQMGGFYLCQPGPPSEKAWQPGWTVNVEGSGELFRWNVSDLGGLGCGLKNRSSEGPSSPSGKLMSPKLYVWAKDRPEIWEGEPPCLPPRDSLNQSLSQDLTMAPGSTLWLSCGVPPDSVSRGPLSWTHVHPKGPKSLLSLELKDDRPAREMIVDETGLLLPRATAQDAGKWYCSRGNVTTSYHLEITARPVKAHSDLRTGGWKGGGGSGGGGSGGGGSGGGGSQVQLQESGGGLVQAGGSLRLSCVASGSIRSINVMGWYRQAPGKQRELVAACASDGNTYYADSVKGRFTISRDNAEKTVYLQMNNLKPDDTAVYYCDANSRGNYYSGQGTQVTVSSTSGPGGQGAEQKLISEEDLGAHHHHHHGAS
As to B5, the binding entry in the assay with Clec12A (human) [1] and with Clec12A (human) [2] was “binds” in each case.

Values taken from patent US20210079060A1.
